Paper PMC9029100

T1: GFP-labeled Atg24 protein (Atg24-GFP) (Aspergillus fumigatus) (UniProt Q4WQI6)
T1 sequence: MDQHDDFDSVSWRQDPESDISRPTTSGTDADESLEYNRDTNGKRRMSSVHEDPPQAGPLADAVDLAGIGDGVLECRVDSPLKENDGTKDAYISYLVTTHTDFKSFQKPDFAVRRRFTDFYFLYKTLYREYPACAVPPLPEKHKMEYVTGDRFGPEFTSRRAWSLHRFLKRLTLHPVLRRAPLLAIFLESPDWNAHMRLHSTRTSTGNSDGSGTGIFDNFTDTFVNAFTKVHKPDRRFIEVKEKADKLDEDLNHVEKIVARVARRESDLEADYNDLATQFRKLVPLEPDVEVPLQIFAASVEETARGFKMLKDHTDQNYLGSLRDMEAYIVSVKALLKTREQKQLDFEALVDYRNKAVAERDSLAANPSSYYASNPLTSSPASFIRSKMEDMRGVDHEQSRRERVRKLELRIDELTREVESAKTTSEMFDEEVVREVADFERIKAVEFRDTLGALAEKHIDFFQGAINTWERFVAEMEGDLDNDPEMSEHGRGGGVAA


Target: T1, GFP-labeled Atg24 protein (Atg24-GFP) (Aspergillus fumigatus)
Assay: affinity purification with mass spectrometry; GFP-Trap affinity purification of Atg24-GFP from crude cellular extracts of triplicate A. fumigatus cultures, then quantitative LC-MS/MS; control strain expressing free GFP; significant if p < 0.05 and >2-fold over the GFP control

Row | binding | Molecule
1 | binds | Atg20, autophagy sorting nexin protein
2 | no binding | Atg8 (protein, UniProt Q4WJ27 1-118) MRSKFKDEHPFEKRKAEAERIRQKYADRIPVICEKVEKSDIATIDKKKYLVPADLTVGQFVYVIRKRIKLSPEKAIFIFVDEVLPPTAALMSSIYEEHKDEDGFLYITYSGENTFGDC

These are yes or no findings as the source states them, for the method shown. In cells and extracts the contact can be indirect. A yes stands for co-enrichment or nearness to the bait. Other partners may have been found. A no says only that the protein was not detected with the bait. Tags and fused reporters may be left off the sequences shown.
